At least one structure is not confirmed: it was looked up by name or label, or the drawing left a doubt.
Tests used:
[1] = test system: Bacillus stearothermophilus; experiment: Premi Test microbial inhibition test, spiked chicken meat juice with thickening agent; type: cell-based
Procedure: (§1) The samples were then examined using microbial inhibition test ampoules produced according to the methods described in EP 0005891 with the nutrients present in the agar. The said test is also known as Premi®Test (commercially available from DSM N.V., Delft, The Netherlands).
Fresh chicken breast meat of a negative chicken was obtained from a slaughterhouse (negative in the sense of the presence of antibiotics). To obtain meat fluid for further testing pieces of meat were heated for 10 minutes at 64° C. and gently sqeezed using a garlic press. Spiked samples were prepared by adding Amoxicillin (0, 5 and 10 ppb), Oxytetracycline (0, 75 and 100 ppb) or Sulphadiazine (0, 75 and 100 ppb) to the meat juice.
To a part of said samples the thickening agent methylcellulose (4000 c.p.i., Sigma) was added to a final concentration of 1.5%.
100 μl of each sample was added to the Premi®Test ampoules (in duplicate) following the procedure described in Example 1. However, since a thickening agent was added, the pre-incubation step was not required anymore. Also the heating of the samples for 10 minutes at 80° C. was not required for this specific sample.
In addition a similar experiment was executed. However, now samples containing 10 ppb of Amoxycillin or 200 ppb of Oxytetracycline were prepared and the thickening agent bovine albumine (Sigma) was added to a final concentration of 6%.

[2] = test system: Bacillus stearothermophilus; experiment: Premi Test microbial inhibition test, spiked bovine kidney pre-urine; type: cell-based; settings: part of sample with methylcellulose 1.5%, controls yellow after 185 minutes
Description: Fresh kidneys of 7 negative (negative in the sense of the presence of antibiotics) cows were obtained from a slaughterhouse. To obtain samples for testing for the presence or absence of antimicrobial drug residues, the rosettes of the kidneys were divided into pieces. The pieces were gently squeezed using a garlic press to obtain pre-urine.
as §1
100 μl of each of the 7 squeezed samples (pre-urine) was added to the test ampoules and heated for 10 minutes at 80° C. in a waterbath, the ampoules were immediately placed in a waterbath of 64° C. and incubated following the instructions of the manufacturer.
The experiment was executed as described in Example 1. However now to a part of the pre-urine sample the thickening agent methylcellulose (4000 c.p.i., Sigma) was added to a final concentration of 1.5%. Also spiked samples were prepared following the method described in Example 6.

## CN(C)[C@@H]1C(O)=C(C(N)=O)C(=O)[C@@]2(O)C(O)=C3C(=O)c4c(O)cccc4[C@@](C)(O)[C@H]3[C@H](O)[C@@H]12 [Oxytetracycline]
[1]; chicken meat juice spiked with 75 ppb, part of samples with methylcellulose 1.5%, after 160 minutes
  test colour / result (purple = positive): remained purple (positive)
[1]; chicken meat juice spiked with 100 ppb, part of samples with methylcellulose 1.5%, after 160 minutes
  test colour / result (purple = positive): remained purple (positive)
[1]; chicken meat juice spiked with 200 ppb, bovine albumine 6%, after 165 minutes
  test colour / result (purple = positive): remained purple
[2]; pre-urine spiked with 75 ppb
  test colour / result (purple = positive): remained purple (positive)
[2]; pre-urine spiked with 100 ppb
  test colour / result (purple = positive): remained purple (positive)
